Test results as given in patent US20220085295A1, “Novel Compound and Organic Light Emitting Device Comprising the Same” (LG Chem, Ltd., priority 2019, published 2022).

Experiment: Evaluation of characteristics of organic light emitting device (compound as light emitting layer dopant)
Conditions: for Lifetime (hr @1000 nit): T90: time for luminance to be reduced to 90% of initial luminance (1000 nit); for Driving voltage (V @10 mA/cm^2) / Luminous efficiency (cd/A @10 mA/cm^2) / Power efficiency (lm/W @10 mA/cm^2): organic light emitting device, current density 10 mA/cm^2

In the case of `Cc1ccc(C)c(C2(c3ccc([Si](C)(C)C)cc3)c3cc(N(c4ccccc4)c4ccc(C(C)(C)C)cc4)c4c(oc5ccccc54)c3-c3c2cc(N(c2ccccc2)c2ccc(C(C)(C)C)cc2)c2oc4ccccc4c32)c1` (stereo not shown) [Compound 9], the “Lifetime (hr @1000 nit)” value is reported as 340 h, the “Driving voltage (V @10 mA/cm^2)” value is reported as 4.33 V and the “Luminous efficiency (cd/A @10 mA/cm^2)” value is reported as 5.29 cd/A. The “Power efficiency (lm/W @10 mA/cm^2)” value was 3.77 lm/W.
For `CC(C)(C)c1ccc(N(c2ccccc2)c2ccc3c(c2)C2(c4ccccc4-c4ccccc42)c2cc(N(c4ccccc4)c4ccc(C(C)(C)C)cc4)c4c(oc5ccccc54)c2-3)cc1` [Compound BD, reference compound], the “Lifetime (hr @1000 nit)” value was 312 h, the “Driving voltage (V @10 mA/cm^2)” value was 4.40 V and the “Luminous efficiency (cd/A @10 mA/cm^2)” value was 5.17 cd/A. For the same compound, the “Power efficiency (lm/W @10 mA/cm^2)” value was 3.61 lm/W.
For `CC(C)(C)c1ccc(N(c2ccc(C(C)(C)C)cc2)c2ccc(C3(c4ccc(C(C)(C)C)cc4)c4cc(N(c5ccc(C(C)(C)C)cc5)c5cccc6c5oc5ccccc56)c5c(oc6ccccc65)c4-c4c3cc(N(c3ccc(C(C)(C)C)cc3)c3cccc5c3oc3ccccc35)c3oc5ccccc5c43)cc2)cc1` (stereo not shown) [Compound 6], the “Lifetime (hr @1000 nit)” value was 347 h, the “Driving voltage (V @10 mA/cm^2)” value was 4.38 V and the “Luminous efficiency (cd/A @10 mA/cm^2)” value was 5.51 cd/A. For the same compound, the “Power efficiency (lm/W @10 mA/cm^2)” value was 3.81 lm/W.
With `CC(C)(C)c1ccc(N(c2ccc(C(C)(C)C)cc2)c2ccc(C3(c4ccc(C(C)(C)C)cc4)c4cc(N(c5ccccc5)c5ccc(C(C)(C)C)cc5)ccc4-c4c3cc(N(c3ccccc3)c3ccc(C(C)(C)C)cc3)c3oc5ccccc5c43)cc2)cc1` (stereo not shown) [Compound 1] the “Lifetime (hr @1000 nit)” value was 351 h, the “Driving voltage (V @10 mA/cm^2)” value was 4.37 V and the “Luminous efficiency (cd/A @10 mA/cm^2)” value was 5.29 cd/A. For the same compound, the “Power efficiency (lm/W @10 mA/cm^2)” value was 3.75 lm/W.
In the case of `CC(C)(C)c1ccc(N(c2ccc(C(C)(C)C)cc2)c2ccc(C3(c4ccc(C(C)(C)C)cc4)c4cc(N(c5ccc(C(C)(C)C)cc5)c5cccc6c5oc5ccccc56)ccc4-c4c3cc(N(c3ccc(C(C)(C)C)cc3)c3cccc5c3oc3ccccc35)c3c4-c4ccccc4C3(C)C)cc2)cc1` (stereo not shown) [Compound 4], the “Lifetime (hr @1000 nit)” value is reported as 366 h, the “Driving voltage (V @10 mA/cm^2)” value is reported as 4.29 V and the “Luminous efficiency (cd/A @10 mA/cm^2)” value is reported as 5.35 cd/A. The “Power efficiency (lm/W @10 mA/cm^2)” value was 3.90 lm/W.
For `CC(C)(C)c1ccc(N(c2ccc(C(C)(C)C)cc2)c2ccc(C3(c4ccc(C(C)(C)C)cc4)c4cc(N(c5ccc(C(C)(C)C)cc5)c5cccc6c5oc5ccccc56)ccc4-c4c3cc(N(c3ccc(C(C)(C)C)cc3)c3cccc5c3oc3ccccc35)c3oc5ccccc5c43)cc2)cc1` (stereo not shown) [Compound 2], the “Lifetime (hr @1000 nit)” value was 340 h, the “Driving voltage (V @10 mA/cm^2)” value was 4.31 V and the “Luminous efficiency (cd/A @10 mA/cm^2)” value was 5.20 cd/A. For the same compound, the “Power efficiency (lm/W @10 mA/cm^2)” value was 3.77 lm/W.
For `CC(C)(C)c1ccc(Sc2ccc(C3(c4ccc(C(C)(C)C)cc4)c4cc(N(c5ccccc5)c5ccc(C(C)(C)C)cc5)c5c(oc6ccccc65)c4-c4c3cc(N(c3ccccc3)c3ccc(C(C)(C)C)cc3)c3oc5ccccc5c43)cc2)cc1` (stereo not shown) [Compound 8], the “Lifetime (hr @1000 nit)” value was 342 h, the “Driving voltage (V @10 mA/cm^2)” value was 4.32 V and the “Luminous efficiency (cd/A @10 mA/cm^2)” value was 5.24 cd/A. The “Power efficiency (lm/W @10 mA/cm^2)” value was 3.75 lm/W.
For `CC(C)(C)c1ccc(N(c2ccc(C(C)(C)C)cc2)c2ccc(C3(c4ccc(C(C)(C)C)cc4)c4cc(N(c5ccccc5)c5ccc(C(C)(C)C)cc5)c5c(oc6ccccc65)c4-c4c3cc(N(c3ccccc3)c3ccc(C(C)(C)C)cc3)c3oc5ccccc5c43)cc2)cc1` (stereo not shown) [Compound 5], the “Lifetime (hr @1000 nit)” value was 339 h, the “Driving voltage (V @10 mA/cm^2)” value was 4.35 V and the “Luminous efficiency (cd/A @10 mA/cm^2)” value was 5.26 cd/A. The “Power efficiency (lm/W @10 mA/cm^2)” value was 3.69 lm/W.
For `CC(C)(C)c1ccc(N(c2ccc(C(C)(C)C)cc2)c2ccc(C3(c4ccc(C(C)(C)C)cc4)c4cc(N(c5ccccc5)c5ccc(C(C)(C)C)cc5)ccc4-c4c3cc(N(c3ccccc3)c3ccc(C(C)(C)C)cc3)c3c4-c4ccccc4C3(C)C)cc2)cc1` (stereo not shown) [Compound 3], the “Lifetime (hr @1000 nit)” value was 365 h, the “Driving voltage (V @10 mA/cm^2)” value was 4.28 V and the “Luminous efficiency (cd/A @10 mA/cm^2)” value was 5.37 cd/A. For the same compound, the “Power efficiency (lm/W @10 mA/cm^2)” value was 3.95 lm/W.
For `CC(C)(C)c1ccc(Oc2ccc(C3(c4ccc(C(C)(C)C)cc4)c4cc(N(c5ccccc5)c5ccc(C(C)(C)C)cc5)c5c(oc6ccccc65)c4-c4c3cc(N(c3ccccc3)c3ccc(C(C)(C)C)cc3)c3oc5ccccc5c43)cc2)cc1` (stereo not shown) [Compound 7], the “Lifetime (hr @1000 nit)” value was 335 h, the “Driving voltage (V @10 mA/cm^2)” value was 4.27 V and the “Luminous efficiency (cd/A @10 mA/cm^2)” value was 5.30 cd/A. For the same compound, the “Power efficiency (lm/W @10 mA/cm^2)” value was 3.81 lm/W.
